From patent publication US20030199423A1
No constants are given. Whether binding was seen depends on the method and setting. Some results given as binding are weak or reduced against the parent protein; the word gives no strength.

Protein sequences, listed by entry. Tags and fused reporters are not part of them.
UniProt P68363: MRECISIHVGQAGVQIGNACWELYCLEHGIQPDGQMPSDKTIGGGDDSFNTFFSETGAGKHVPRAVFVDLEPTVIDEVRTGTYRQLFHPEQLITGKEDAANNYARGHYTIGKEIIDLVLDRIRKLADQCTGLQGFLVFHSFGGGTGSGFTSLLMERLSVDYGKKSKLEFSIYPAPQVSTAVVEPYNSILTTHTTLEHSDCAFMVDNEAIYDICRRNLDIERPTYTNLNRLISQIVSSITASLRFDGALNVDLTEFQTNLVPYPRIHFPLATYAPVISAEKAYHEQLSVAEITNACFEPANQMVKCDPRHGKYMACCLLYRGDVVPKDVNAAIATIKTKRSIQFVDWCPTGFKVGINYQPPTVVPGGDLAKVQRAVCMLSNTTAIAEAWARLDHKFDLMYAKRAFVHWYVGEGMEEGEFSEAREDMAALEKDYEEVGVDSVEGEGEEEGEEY

Tests used:
[1] = biological target: T1, ICAM-R cytoplasmic tail (C-tail) peptide (human); experiment: C-tail affinity chromatography of tonsil lysate, peptide elution, western blot
T1 sequence (peptide): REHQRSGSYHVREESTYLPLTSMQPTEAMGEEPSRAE

[2] = biological target: T1, ICAM-R cytoplasmic tail (C-tail) peptide (human); experiment: peptide beads with Jijoye cell lysate, western blot

Q: How did the binding [1] turn out when “alpha-tubulin in cell lysates (from UniProt P68363 1-451)” was run?
A: binds

Q: And the binding [2]?
A: binds
